According to patent publication US12024498B2, “Radical compounds and methods of using thereof” (OHIO STATE INNOVATION FOUNDATION, priority 2017, dated 2024):

Assay: DNP-enhanced 1H-13C CP-MAS solid-state NMR of proline samples doped with biradical polarizing agent
Details: for εAbs (absolute enhancement, doped vs undoped sample) / εDNP (microwave on/off signal enhancement) / τDNP (DNP build-up time) / time-adjusted absolute enhancement, εAbs-time: at optimal biradical concentration; for εAbs (absolute enhancement, doped vs undoped sample) / εDNP (microwave on/off signal enhancement) / τDNP (DNP build-up time): 600 MHz 1H, 8 kHz MAS, ~100 K; for time-adjusted absolute enhancement, εAbs-time: calculated with equation 3; for εAbs / εDNP: discussion of optimal samples; for εDNP, greatest value of the concentration series: maximum over biradical concentrations 5-30 mM (ATT at 15 mM); for relative intensity in 10-minute 1H-13C CP experiments: recycle delay 1.26×τDNP, optimal concentrations, scaled with respect to AMUPOL=18.0

| Molecule | factor by which εAbs is smaller than εDNP (depolarizing effect) | τDNP [s] | εAbs (absolute enhancement, doped vs undoped sample) | εDNP (microwave on/off signal enhancement) | τDNP (DNP build-up time) [s] | time-adjusted absolute enhancement, εAbs-time | opt. biradical conc. (determined from εAbs-time profiles, concentration by EPR) [mM] | εAbs | εDNP | εDNP, greatest value of the concentration series | εAbs-time, maximum of profile (as a function of biradical concentration (TST at 14 mM)) | relative intensity in 10-minute 1H-13C CP experiments | εAbs, largest value of the concentration series (maximum over biradical concentrations 5-30 mM (TTS at 6 mM)) | εAbs-time (optimal concentration) [s^1/2] |
| --- | --- | --- | --- | --- | --- | --- | --- | --- | --- | --- | --- | --- | --- | --- |
| CC1(C)CC(N)(C(=O)NC2(C(=O)O)CC(C)(C)N([O])C(C)(C)C2)CC(C)(C)N1[O] [TT, TOAC-TOAC] | factor of two | 1.60 | 11.7 | 24.6 | 2.07 | 7.3 | 9.33 | 12 | 25 | 25 |  |  |  |  |
| TOAC-Ser-TOAC [TST] |  |  | 10.6 | 25.3 | 3.90 | 4.8 |  |  |  | 25 | 4.8 | 4.9 |  |  |
| TOAC-TOAC-Ser [TTS] | factor of two |  | 18.5 |  | 2.59 | 10.3 |  | 19 |  |  |  |  | 21 | 10.3 |
| acetyl-TOAC-TOAC [ATT] |  |  | 13.0 | 47.7 | 2.58 | 7.2 |  | 13 | 48 | 48 |  | 9.0 |  |  |
